Measured values published in publication PMC6570425, “Regulation of GLI1 by cis DNA elements and epigenetic marks”.

The chains behind the UniProt entries cited, without tags or fusion partners.
UniProt P08151: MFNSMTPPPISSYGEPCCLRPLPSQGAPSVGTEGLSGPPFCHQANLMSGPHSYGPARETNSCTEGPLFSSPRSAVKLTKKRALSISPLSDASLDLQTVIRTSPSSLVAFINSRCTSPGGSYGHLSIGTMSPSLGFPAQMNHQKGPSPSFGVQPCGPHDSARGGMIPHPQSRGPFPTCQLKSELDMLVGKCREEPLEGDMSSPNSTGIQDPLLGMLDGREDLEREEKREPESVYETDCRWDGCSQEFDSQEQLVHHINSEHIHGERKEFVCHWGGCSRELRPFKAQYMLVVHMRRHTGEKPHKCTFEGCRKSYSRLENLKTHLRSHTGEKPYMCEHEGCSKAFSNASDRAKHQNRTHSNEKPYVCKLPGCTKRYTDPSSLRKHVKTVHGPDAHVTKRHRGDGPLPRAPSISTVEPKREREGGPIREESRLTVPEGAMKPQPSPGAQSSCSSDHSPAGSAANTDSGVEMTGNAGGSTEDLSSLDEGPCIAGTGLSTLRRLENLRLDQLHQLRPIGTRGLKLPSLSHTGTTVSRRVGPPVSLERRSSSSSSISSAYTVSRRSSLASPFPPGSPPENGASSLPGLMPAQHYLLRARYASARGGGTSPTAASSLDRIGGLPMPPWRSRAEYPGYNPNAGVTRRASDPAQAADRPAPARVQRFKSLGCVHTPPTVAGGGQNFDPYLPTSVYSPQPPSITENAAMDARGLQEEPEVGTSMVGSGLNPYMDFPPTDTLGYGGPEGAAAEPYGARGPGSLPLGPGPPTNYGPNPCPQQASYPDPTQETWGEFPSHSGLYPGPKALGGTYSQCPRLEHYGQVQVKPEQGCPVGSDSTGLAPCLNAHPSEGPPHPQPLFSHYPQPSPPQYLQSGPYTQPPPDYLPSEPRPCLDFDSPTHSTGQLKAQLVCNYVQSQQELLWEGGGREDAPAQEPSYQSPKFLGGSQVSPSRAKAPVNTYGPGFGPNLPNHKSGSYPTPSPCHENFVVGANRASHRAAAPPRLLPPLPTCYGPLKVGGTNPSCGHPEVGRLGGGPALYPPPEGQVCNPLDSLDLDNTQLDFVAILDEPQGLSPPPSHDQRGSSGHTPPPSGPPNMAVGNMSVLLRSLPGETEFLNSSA

Target: GLI1-GFP fusion protein (UniProt P08151)
Test: affinity purification with mass spectrometry; HeLa cells transfected with GFP-GLI1 or GFP alone; lysis in modified RIPA (400 mM NaCl, 1% NP-40); GFP-Trap beads overnight at 4 °C; washes with 150 mM NaCl, 0.1% NP-40; SDS-PAGE, LC-MS/MS with LFQ; two independent isolations

binding: binds
B1: SUV39H1, a histone methyltransferase (enzyme, UniProt O43463 1-412)
chain: MAENLKGCSVCCKSSWNQLQDLCRLAKLSCPALGISKRNLYDFEVEYLCDYKKIREQEYYLVKWRGYPDSESTWEPRQNLKCVRILKQFHKDLERELLRRHHRSKTPRHLDPSLANYLVQKAKQRRALRRWEQELNAKRSHLGRITVENEVDLDGPPRAFVYINEYRVGEGITLNQVAVGCECQDCLWAPTGGCCPGASLHKFAYNDQGQVRLRAGLPIYECNSRCRCGYDCPNRVVQKGIRYDLCIFRTDDGRGWGVRTLEKIRKNSFVMEYVGEIITSEEAERRGQIYDRQGATYLFDLDYVEDVYTVDAAYYGNISHFVNHSCDPNLQVYNVFIDNLDERLPRIAFFATRTIRAGEELTFDYNMQVDPVDMESTRMDSNFGLAGLPGSPKKRVRIECKCGTESCRKYLF

No constants are given. Whether binding was seen depends on the method and setting. Binding seen in cells or lysates may run through a third protein. Here binding means that the protein was enriched with, or labelled near, the bait; the list need not be complete. Tags and fused reporters may be left off the sequences shown.
